# Measurements reported in paper PMC10849766.
# These are yes or no findings as the source states them, for the method shown. In cells and extracts the contact can be indirect. A yes stands for co-enrichment or nearness to the bait. Other partners may have been found.
# T1: Vascular endothelial (VE)-cadherin (human (endogenous in HBMECs)) (UniProt P33151)
# T1 sequence: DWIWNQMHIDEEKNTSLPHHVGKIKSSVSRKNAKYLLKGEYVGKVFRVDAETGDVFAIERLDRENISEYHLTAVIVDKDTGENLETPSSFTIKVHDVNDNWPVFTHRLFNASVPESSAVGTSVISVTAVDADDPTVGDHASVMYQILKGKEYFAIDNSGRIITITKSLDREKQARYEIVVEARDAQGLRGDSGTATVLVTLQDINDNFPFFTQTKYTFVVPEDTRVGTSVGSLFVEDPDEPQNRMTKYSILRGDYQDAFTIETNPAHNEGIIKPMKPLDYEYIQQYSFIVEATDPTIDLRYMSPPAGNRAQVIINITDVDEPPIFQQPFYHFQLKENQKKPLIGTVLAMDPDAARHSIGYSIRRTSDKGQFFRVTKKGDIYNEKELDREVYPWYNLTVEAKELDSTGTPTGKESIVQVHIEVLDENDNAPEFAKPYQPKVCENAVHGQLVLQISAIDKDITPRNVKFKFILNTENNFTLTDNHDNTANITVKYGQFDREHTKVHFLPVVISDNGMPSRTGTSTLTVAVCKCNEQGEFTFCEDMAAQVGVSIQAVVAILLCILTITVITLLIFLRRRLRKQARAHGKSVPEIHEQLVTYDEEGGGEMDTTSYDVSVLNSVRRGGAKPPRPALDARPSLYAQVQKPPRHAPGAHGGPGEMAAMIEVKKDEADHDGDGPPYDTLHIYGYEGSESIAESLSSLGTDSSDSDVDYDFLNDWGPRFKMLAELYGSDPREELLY
# T2: Vascular endothelial (VE)-cadherin (human (endogenous in HBMECs)), P33151
# T2 chain: T1 sequence
# B1: β-catenin, P35222 1-781 (protein)
# chain: MATQADLMELDMAMEPDRKAAVSHWQQQSYLDSGIHSGATTTAPSLSGKGNPEEEDVDTSQVLYEWEQGFSQSFTQEQVADIDGQYAMTRAQRVRAAMFPETLDEGMQIPSTQFDAAHPTNVQRLAEPSQMLKHAVVNLINYQDDAELATRAIPELTKLLNDEDQVVVNKAAVMVHQLSKKEASRHAIMRSPQMVSAIVRTMQNTNDVETARCTAGTLHNLSHHREGLLAIFKSGGIPALVKMLGSPVDSVLFYAITTLHNLLLHQEGAKMAVRLAGGLQKMVALLNKTNVKFLAITTDCLQILAYGNQESKLIILASGGPQALVNIMRTYTYEKLLWTTSRVLKVLSVCSSNKPAIVEAGGMQALGLHLTDPSQRLVQNCLWTLRNLSDAATKQEGMEGLLGTLVQLLGSDDINVVTCAAGILSNLTCNNYKNKMMVCQVGGIEALVRTVLRAGDREDITEPAICALRHLTSRHQEAEMAQNAVRLHYGLPVVVKLLHPPSHWPLIKATVGLIRNLALCPANHAPLREQGAIPRLVQLLVRAHQDTQRRTSMGGTQQQFVEGVRMEEIVEGCTGALHILARDVHNRIVIRGLNTIPLFVQLLYSPIENIQRVAAGVLCELAQDKEAAEAIEAEGATAPLTELLHSRNEGVATYAAAVLFRMSEDKPQDYKKRLSVELTSSLFRTEPMAWNETADLGLDIGAQGEPLGYRQDDPSYRSFHSGGYGQDALGMDPMMEHEMGGHHPGADYPVDGLPDLGHAQDLMDGLPPGDSNQLAWFDTDL
# Key:
# [1] = target: T1, Vascular endothelial (VE)-cadherin (human (endogenous in HBMECs)); assay: affinity purification with mass spectrometry; IP with anti-VE-cadherin antibody and quantitative (label-free) LC-MS; HBMECs under hypoxia plus IL-1β for 24 hours with or without rhTIMP2
# [2] = target: T2, Vascular endothelial (VE)-cadherin …; assay: as above; details: remark: other sources report otherwise
Molecule,binding [1],binding [2]
α-catenin (human (endogenous in HBMECs)),binds,–
B1,–,binds
